# Source: the supplement of paper PMC8728848
# Some of the results follow.
# B1: ERGIC1-EDTA (Homo sapiens), Q969X5 (protein)
# chain: MKFLVNVALVFMVVYISYIYAAAHMHHHHHHDYDIPTTENLYFQGSEVVNELYVDDPDKDSGGKIDVSLNISLPNLHCELVGLDIQDEMGRHEVGHIDNSMKIPLNNGAGCRFEGQFSINKVPGNFHVSTHSATAQPQNPDMTHVIHKLSFGDTLQVQNIHGAFNALGGADRLTSNPLASHDYILKIVPTVYEDKSGKQRYSYQYTVANKEYVAYSHTGRIIPAIWFRYDLSPITVKYTE
# Key:
# Assay in all cases: glycan array binding signal (z-score within array); higher = stronger binding
# Conditions in all cases: glycan notation: IUPAC condensed, linker removed
# [1] = target: Gal(b1-3)[Fuc(a1-4)]GlcNAc(b1-3)Gal(b1-4)[Fuc(a1-3)]GlcNAc
# Procedure, shortened: (§1)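 The binding signal is a Z-score computed within each array. Data were drawn from 3228 arrays in the Consortium for Functional Glycomics database, restricted to those with a known protein sequence. Scores were averaged over arrays of the same protein sequence at different concentrations or buffers, and over linkers, and negative values can be taken as non-binding.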
# [2] = target: Gal(b1-3)[Fuc(a1-4)]GlcNAc(b1-6)GalNAc
# Procedure, shortened: as §1
# [3] = target: Gal(b1-3)[GlcNAc(b1-6)]GalNAc
# Procedure, shortened: as §1
# [4] = target: Gal(b1-3)[Neu5Ac(a2-6)]GalNAc
# Procedure, shortened: as §1
# [5] = target: Gal(b1-3)[Neu5Ac(a2-6)]GlcNAc(b1-4)Gal(b1-4)Glc
# Procedure, shortened: as §1
# [6] = target: Gal(b1-3)[Neu5Ac(b2-6)]GalNAc
# Procedure, shortened: as §1
# Gal(b1-4)Gal = target: Gal(b1-4)Gal
# Procedure, shortened: as §1
# [7] = target: Gal(b1-4)GalNAc(a1-3)[Fuc(a1-2)]Gal(b1-4)GlcNAc
# Procedure, shortened: as §1
# [8] = target: Gal(b1-4)GalNAc(b1-3)[Fuc(a1-2)]Gal(b1-4)GlcNAc
# Procedure, shortened: as §1
# Gal(b1-4)Glc = target: Gal(b1-4)Glc
# Procedure, shortened: as §1
# Gal(b1-4)Glc6S = target: Gal(b1-4)Glc6S
# Procedure, shortened: as §1
# Gal(b1-4)GlcNAc = target: Gal(b1-4)GlcNAc
# Procedure, shortened: as §1
# [9] = target: Gal(b1-4)GlcNAc(a1-6)Gal(b1-4)GlcNAc
# Procedure, shortened: as §1
# Gal(b1-4)GlcNAc(b1-2)Man = target: Gal(b1-4)GlcNAc(b1-2)Man
# Procedure, shortened: as §1
# [10] = target: Gal(b1-4)GlcNAc(b1-2)Man(a1-3)Man(b1-4)GlcNAc(b1-4)GlcNAc
# Procedure, shortened: as §1
# [11] = target: Gal(b1-4)GlcNAc(b1-2)Man(a1-3)[Gal(b1-4)GlcNAc(b1-2)Man(a1-6)]Man(b1-4)GlcNAc(b1-4)GlcNAc
# Procedure, shortened: as §1
# [12] = target: Gal(b1-4)GlcNAc(b1-2)Man(a1-3)[Gal(b1-4)GlcNAc(b1-2)Man(a1-6)]Man(b1-4)GlcNAc(b1-4)[Fuc(a1-6)]GlcNAc
# Procedure, shortened: as §1
# [13] = target: Gal(b1-4)GlcNAc(b1-2)Man(a1-3)[Gal(b1-4)GlcNAc(b1-2)Man(a1-6)][Gal(b1-4)GlcNAc(b1-4)]Man(b1-4)GlcNAc(b1-4)[Fuc(a1-6)]GlcNAc
# Procedure, shortened: as §1
# [14] = target: Gal(b1-4)GlcNAc(b1-2)Man(a1-3)[Gal(b1-4)GlcNAc(b1-2)Man(a1-6)][GlcNAc(b1-4)]Man(b1-4)GlcNAc(b1-4)[Fuc(a1-6)]GlcNAc
# Procedure, shortened: as §1
# [15] = target: Gal(b1-4)GlcNAc(b1-2)Man(a1-3)[GlcNAc(b1-2)Man(a1-6)]Man(b1-4)GlcNAc(b1-4)GlcNAc
# Procedure, shortened: as §1
# [16] = target: Gal(b1-4)GlcNAc(b1-2)Man(a1-3)[GlcNAc(b1-4)][Gal(b1-4)GlcNAc(b1-2)Man(a1-6)]Man(b1-4)GlcNAc(b1-4)GlcNAc
# Procedure, shortened: as §1
# [17] = target: Gal(b1-4)GlcNAc(b1-2)Man(a1-3)[Man(a1-6)]Man(b1-4)GlcNAc(b1-4)GlcNAc
# Procedure, shortened: as §1
# [18] = target: Gal(b1-4)GlcNAc(b1-2)Man(a1-6)Man(b1-4)GlcNAc(b1-4)GlcNAc
# Procedure, shortened: as §1
# [19] = target: Gal(b1-4)GlcNAc(b1-2)Man(a1-6)[GlcNAc(b1-2)Man(a1-3)]Man(b1-4)GlcNAc(b1-4)GlcNAc
# Procedure, shortened: as §1
# [20] = target: Gal(b1-4)GlcNAc(b1-2)Man(a1-6)[Man(a1-3)]Man(b1-4)GlcNAc(b1-4)GlcNAc
# Procedure, shortened: as §1
# [21] = target: Gal(b1-4)GlcNAc(b1-2)[Gal(b1-4)GlcNAc(b1-4)]Man(a1-3)[Gal(b1-4)GlcNAc(b1-2)Man(a1-6)]Man(b1-4)GlcNAc(b1-4)GlcNAc
# Procedure, shortened: as §1
# [22] = target: Gal(b1-4)GlcNAc(b1-2)[Gal(b1-4)GlcNAc(b1-4)]Man(a1-3)[Gal(b1-4)GlcNAc(b1-2)[Gal(b1-4)GlcNAc(b1-6)]Man(a1-6)]Man(b1-4)GlcNAc(b1-4)GlcNAc
# Procedure, shortened: as §1
# [23] = target: Gal(b1-4)GlcNAc(b1-2)[Gal(b1-4)GlcNAc(b1-4)]Man(a1-3)[GlcNAc(b1-4)][Gal(b1-4)GlcNAc(b1-2)Man(a1-6)]Man(b1-4)GlcNAc(b1-4)GlcNAc
# Procedure, shortened: as §1
# [24] = target: Gal(b1-4)GlcNAc(b1-2)[Gal(b1-4)GlcNAc(b1-4)]Man(a1-3)[GlcNAc(b1-4)][Gal(b1-4)GlcNAc(b1-2)[Gal(b1-4)GlcNAc(b1-6)]Man(a1-6)]Man(b1-4)GlcNAc(b1-4)GlcNAc
# Procedure, shortened: as §1
# [25] = target: Gal(b1-4)GlcNAc(b1-2)[Gal(b1-4)GlcNAc(b1-6)]Man(a1-6)[Gal(b1-4)GlcNAc(b1-2)Man(a1-3)]Man(b1-4)GlcNAc(b1-4)GlcNAc
# Procedure, shortened: as §1
# [26] = target: Gal(b1-4)GlcNAc(b1-2)[Gal(b1-4)GlcNAc(b1-6)]Man(a1-6)[Gal(b1-4)GlcNAc(b1-2)Man(a1-3)]Man(b1-4)GlcNAc(b1-4)[Fuc(a1-6)]GlcNAc
# Procedure, shortened: as §1
# [27] = target: Gal(b1-4)GlcNAc(b1-2)[Gal(b1-4)GlcNAc(b1-6)]Man(a1-6)[GlcNAc(b1-4)][Gal(b1-4)GlcNAc(b1-2)Man(a1-3)]Man(b1-4)GlcNAc(b1-4)GlcNAc
# Procedure, shortened: as §1
# [28] = target: Gal(b1-4)GlcNAc(b1-2)[Gal(b1-4)GlcNAc(b1-6)]Man(a1-6)[GlcNAc(b1-4)][Gal(b1-4)GlcNAc(b1-2)[Gal(b1-4)GlcNAc(b1-4)]Man(a1-3)]Man(b1-4)GlcNAc(b1-4)[Fuc(a1-6)]GlcNAc
# Procedure, shortened: as §1
# [29] = target: Gal(b1-4)GlcNAc(b1-3)Gal(b1-3)GalNAc
# Procedure, shortened: as §1
# [30] = target: Gal(b1-4)GlcNAc(b1-3)Gal(b1-3)GlcNAc
# Procedure, shortened: as §1
# [31] = target: Gal(b1-4)GlcNAc(b1-3)Gal(b1-4)Glc
# Procedure, shortened: as §1
# [32] = target: Gal(b1-4)GlcNAc(b1-3)Gal(b1-4)GlcNAc
# Procedure, shortened: as §1
# [33] = target: Gal(b1-4)GlcNAc(b1-3)Gal(b1-4)GlcNAc(b1-2)Man(a1-3)[Gal(b1-4)GlcNAc(b1-3)Gal(b1-4)GlcNAc(b1-2)Man(a1-6)]Man(b1-4)GlcNAc(b1-4)GlcNAc
# Procedure, shortened: as §1
binder,measurement,setting,value
B1,glycan array binding signal (z-score),[1],0.672
same,glycan array binding signal (z-score),[2],-0.044
same,glycan array binding signal (z-score),[3],0.063
same,glycan array binding signal (z-score),[4],-0.153
same,glycan array binding signal (z-score),[5],-0.363
same,glycan array binding signal (z-score),[6],0.033
same,glycan array binding signal (z-score),Gal(b1-4)Gal,-0.987
same,glycan array binding signal (z-score),[7],-0.441
same,glycan array binding signal (z-score),[8],-1.57
same,glycan array binding signal (z-score),Gal(b1-4)Glc,-0.014
same,glycan array binding signal (z-score),Gal(b1-4)Glc6S,-0.759
same,glycan array binding signal (z-score),Gal(b1-4)GlcNAc,0.108
same,glycan array binding signal (z-score),[9],-0.984
same,glycan array binding signal (z-score),Gal(b1-4)GlcNAc(b1-2)Man,0.343
same,glycan array binding signal (z-score),[10],-0.093
same,glycan array binding signal (z-score),[11],1.31
same,glycan array binding signal (z-score),[12],0.214
same,glycan array binding signal (z-score),[13],-0.361
same,glycan array binding signal (z-score),[14],-0.444
same,glycan array binding signal (z-score),[15],-0.981
same,glycan array binding signal (z-score),[16],-0.567
same,glycan array binding signal (z-score),[17],0.243
same,glycan array binding signal (z-score),[18],0.227
same,glycan array binding signal (z-score),[19],-0.513
same,glycan array binding signal (z-score),[20],0.299
same,glycan array binding signal (z-score),[21],-0.981
same,glycan array binding signal (z-score),[22],-0.333
same,glycan array binding signal (z-score),[23],0.064
same,glycan array binding signal (z-score),[24],-0.648
same,glycan array binding signal (z-score),[25],1.68
same,glycan array binding signal (z-score),[26],0.574
same,glycan array binding signal (z-score),[27],-0.135
same,glycan array binding signal (z-score),[28],-0.619
same,glycan array binding signal (z-score),[29],-1.26
same,glycan array binding signal (z-score),[30],-0.555
same,glycan array binding signal (z-score),[31],-0.448
same,glycan array binding signal (z-score),[32],-0.664
same,glycan array binding signal (z-score),[33],0.282

# Reformatted: results already given.
binder	measurement	setting	value
B1	glycan array binding signal (z-score)	Gal(b1-4)GlcNAc	0.108
same	glycan array binding signal (z-score)	[26]	0.574
